The list shows a part of the results. The data scatter; read single values as rough.

By UniProt entry, the sequences of proteins in these tests, tags left out. Where a name states a change or a piece, a line headed by the entry shows the natural chain unless it says otherwise.
UniProt Q5VT25: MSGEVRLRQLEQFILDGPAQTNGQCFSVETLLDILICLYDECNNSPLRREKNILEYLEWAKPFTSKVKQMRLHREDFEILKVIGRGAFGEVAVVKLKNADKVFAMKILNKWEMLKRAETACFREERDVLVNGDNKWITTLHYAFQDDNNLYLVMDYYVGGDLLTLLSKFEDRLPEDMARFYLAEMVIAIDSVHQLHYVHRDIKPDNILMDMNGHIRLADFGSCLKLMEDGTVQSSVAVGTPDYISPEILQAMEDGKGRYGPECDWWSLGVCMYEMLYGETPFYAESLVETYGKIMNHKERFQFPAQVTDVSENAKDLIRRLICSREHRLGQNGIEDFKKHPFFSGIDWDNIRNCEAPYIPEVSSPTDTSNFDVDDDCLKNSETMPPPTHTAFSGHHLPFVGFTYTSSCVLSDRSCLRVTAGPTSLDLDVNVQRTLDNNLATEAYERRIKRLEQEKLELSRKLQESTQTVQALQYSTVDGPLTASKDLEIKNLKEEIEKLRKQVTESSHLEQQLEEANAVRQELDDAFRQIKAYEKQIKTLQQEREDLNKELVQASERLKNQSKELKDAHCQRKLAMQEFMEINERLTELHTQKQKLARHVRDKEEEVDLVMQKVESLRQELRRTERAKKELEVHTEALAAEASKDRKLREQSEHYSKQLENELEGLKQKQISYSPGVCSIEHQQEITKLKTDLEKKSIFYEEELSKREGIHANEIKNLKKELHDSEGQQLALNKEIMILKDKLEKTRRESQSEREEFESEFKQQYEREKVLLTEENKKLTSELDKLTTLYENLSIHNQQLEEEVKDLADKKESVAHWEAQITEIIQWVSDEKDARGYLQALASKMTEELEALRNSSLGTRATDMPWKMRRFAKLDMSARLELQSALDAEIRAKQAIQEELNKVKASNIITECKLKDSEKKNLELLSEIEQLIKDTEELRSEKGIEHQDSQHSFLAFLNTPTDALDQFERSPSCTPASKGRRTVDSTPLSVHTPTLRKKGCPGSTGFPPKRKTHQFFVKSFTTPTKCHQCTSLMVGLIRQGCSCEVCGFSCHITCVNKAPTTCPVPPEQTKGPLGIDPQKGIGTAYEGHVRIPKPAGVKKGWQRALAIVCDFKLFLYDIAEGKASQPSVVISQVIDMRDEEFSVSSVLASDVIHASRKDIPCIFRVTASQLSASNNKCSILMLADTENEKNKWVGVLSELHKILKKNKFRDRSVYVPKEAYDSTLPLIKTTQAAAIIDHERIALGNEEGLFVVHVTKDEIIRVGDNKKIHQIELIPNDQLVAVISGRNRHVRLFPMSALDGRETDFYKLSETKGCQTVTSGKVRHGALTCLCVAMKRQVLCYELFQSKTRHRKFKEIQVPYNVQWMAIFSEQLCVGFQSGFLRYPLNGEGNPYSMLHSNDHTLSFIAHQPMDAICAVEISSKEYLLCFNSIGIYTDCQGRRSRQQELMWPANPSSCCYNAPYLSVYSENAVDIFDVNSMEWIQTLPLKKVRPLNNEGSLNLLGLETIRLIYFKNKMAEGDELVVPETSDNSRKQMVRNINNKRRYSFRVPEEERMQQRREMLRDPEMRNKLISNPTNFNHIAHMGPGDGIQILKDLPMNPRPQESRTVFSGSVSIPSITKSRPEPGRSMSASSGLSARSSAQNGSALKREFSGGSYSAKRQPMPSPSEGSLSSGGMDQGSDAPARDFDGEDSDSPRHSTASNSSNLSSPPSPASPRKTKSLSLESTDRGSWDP
UniProt Q15834: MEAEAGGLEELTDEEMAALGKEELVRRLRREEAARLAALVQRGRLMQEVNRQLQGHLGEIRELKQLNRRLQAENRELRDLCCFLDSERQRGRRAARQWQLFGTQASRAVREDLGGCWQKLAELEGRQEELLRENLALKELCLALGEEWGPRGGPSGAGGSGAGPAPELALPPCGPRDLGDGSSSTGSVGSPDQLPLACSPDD
UniProt Q9NXV6: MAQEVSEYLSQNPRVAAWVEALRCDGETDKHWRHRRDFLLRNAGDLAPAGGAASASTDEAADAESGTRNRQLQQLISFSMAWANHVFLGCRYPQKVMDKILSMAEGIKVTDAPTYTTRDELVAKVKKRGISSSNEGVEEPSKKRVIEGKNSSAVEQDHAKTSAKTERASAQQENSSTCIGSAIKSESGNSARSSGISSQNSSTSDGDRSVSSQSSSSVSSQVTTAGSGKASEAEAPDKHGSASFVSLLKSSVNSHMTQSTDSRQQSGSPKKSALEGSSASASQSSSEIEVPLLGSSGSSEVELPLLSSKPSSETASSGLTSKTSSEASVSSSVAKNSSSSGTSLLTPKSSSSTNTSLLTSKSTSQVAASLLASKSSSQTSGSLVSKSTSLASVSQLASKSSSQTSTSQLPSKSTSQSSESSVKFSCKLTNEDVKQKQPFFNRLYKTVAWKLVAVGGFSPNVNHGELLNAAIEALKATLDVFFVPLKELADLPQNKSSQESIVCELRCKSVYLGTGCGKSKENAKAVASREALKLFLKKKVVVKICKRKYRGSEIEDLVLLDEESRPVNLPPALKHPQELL
UniProt Q86XR8: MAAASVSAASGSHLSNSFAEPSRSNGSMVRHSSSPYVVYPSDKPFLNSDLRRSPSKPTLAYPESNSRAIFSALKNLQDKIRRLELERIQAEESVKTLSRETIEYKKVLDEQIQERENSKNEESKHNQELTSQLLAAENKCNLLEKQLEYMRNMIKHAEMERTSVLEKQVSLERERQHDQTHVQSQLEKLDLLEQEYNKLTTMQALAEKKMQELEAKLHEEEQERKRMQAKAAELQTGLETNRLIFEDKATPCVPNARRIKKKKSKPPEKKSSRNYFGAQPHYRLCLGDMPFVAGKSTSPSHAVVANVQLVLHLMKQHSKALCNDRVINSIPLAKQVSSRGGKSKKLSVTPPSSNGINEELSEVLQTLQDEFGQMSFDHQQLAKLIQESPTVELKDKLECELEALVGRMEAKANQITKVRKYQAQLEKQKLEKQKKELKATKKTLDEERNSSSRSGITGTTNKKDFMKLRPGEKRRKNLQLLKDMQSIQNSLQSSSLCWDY
UniProt Q5TB80: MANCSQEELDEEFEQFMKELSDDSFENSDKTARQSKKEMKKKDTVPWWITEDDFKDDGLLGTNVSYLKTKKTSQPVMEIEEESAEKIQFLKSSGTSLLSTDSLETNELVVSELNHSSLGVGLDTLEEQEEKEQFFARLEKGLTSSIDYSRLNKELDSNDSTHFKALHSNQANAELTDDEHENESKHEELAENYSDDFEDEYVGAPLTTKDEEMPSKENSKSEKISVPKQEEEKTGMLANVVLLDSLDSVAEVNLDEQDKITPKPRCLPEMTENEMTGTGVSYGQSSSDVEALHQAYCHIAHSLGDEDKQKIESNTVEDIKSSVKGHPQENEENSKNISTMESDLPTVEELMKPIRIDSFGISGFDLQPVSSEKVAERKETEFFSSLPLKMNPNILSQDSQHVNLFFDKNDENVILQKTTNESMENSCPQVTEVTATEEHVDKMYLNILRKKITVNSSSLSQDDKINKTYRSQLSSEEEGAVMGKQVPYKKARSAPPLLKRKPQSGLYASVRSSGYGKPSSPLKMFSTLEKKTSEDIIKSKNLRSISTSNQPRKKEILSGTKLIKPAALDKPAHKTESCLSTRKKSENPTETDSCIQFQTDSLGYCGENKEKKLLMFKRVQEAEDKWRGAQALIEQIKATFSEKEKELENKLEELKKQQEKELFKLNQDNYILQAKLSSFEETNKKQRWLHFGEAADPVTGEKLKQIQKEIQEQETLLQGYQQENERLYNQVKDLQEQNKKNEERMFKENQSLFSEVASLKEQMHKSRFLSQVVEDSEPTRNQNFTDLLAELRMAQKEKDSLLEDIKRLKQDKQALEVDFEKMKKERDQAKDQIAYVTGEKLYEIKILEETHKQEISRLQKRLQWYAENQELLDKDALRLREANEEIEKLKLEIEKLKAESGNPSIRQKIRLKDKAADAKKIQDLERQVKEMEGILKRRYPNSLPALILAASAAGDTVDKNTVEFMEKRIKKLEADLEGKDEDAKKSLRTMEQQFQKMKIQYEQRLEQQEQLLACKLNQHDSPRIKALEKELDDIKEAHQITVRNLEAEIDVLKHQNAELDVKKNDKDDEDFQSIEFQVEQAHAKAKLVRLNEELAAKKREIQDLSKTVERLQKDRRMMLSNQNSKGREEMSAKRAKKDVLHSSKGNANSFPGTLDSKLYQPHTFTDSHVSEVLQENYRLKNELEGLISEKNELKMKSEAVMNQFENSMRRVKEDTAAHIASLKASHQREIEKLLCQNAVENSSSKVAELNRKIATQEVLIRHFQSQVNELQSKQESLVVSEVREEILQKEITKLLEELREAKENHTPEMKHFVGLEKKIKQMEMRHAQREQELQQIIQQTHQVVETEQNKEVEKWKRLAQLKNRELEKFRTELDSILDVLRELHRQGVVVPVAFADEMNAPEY
UniProt Q96SN8: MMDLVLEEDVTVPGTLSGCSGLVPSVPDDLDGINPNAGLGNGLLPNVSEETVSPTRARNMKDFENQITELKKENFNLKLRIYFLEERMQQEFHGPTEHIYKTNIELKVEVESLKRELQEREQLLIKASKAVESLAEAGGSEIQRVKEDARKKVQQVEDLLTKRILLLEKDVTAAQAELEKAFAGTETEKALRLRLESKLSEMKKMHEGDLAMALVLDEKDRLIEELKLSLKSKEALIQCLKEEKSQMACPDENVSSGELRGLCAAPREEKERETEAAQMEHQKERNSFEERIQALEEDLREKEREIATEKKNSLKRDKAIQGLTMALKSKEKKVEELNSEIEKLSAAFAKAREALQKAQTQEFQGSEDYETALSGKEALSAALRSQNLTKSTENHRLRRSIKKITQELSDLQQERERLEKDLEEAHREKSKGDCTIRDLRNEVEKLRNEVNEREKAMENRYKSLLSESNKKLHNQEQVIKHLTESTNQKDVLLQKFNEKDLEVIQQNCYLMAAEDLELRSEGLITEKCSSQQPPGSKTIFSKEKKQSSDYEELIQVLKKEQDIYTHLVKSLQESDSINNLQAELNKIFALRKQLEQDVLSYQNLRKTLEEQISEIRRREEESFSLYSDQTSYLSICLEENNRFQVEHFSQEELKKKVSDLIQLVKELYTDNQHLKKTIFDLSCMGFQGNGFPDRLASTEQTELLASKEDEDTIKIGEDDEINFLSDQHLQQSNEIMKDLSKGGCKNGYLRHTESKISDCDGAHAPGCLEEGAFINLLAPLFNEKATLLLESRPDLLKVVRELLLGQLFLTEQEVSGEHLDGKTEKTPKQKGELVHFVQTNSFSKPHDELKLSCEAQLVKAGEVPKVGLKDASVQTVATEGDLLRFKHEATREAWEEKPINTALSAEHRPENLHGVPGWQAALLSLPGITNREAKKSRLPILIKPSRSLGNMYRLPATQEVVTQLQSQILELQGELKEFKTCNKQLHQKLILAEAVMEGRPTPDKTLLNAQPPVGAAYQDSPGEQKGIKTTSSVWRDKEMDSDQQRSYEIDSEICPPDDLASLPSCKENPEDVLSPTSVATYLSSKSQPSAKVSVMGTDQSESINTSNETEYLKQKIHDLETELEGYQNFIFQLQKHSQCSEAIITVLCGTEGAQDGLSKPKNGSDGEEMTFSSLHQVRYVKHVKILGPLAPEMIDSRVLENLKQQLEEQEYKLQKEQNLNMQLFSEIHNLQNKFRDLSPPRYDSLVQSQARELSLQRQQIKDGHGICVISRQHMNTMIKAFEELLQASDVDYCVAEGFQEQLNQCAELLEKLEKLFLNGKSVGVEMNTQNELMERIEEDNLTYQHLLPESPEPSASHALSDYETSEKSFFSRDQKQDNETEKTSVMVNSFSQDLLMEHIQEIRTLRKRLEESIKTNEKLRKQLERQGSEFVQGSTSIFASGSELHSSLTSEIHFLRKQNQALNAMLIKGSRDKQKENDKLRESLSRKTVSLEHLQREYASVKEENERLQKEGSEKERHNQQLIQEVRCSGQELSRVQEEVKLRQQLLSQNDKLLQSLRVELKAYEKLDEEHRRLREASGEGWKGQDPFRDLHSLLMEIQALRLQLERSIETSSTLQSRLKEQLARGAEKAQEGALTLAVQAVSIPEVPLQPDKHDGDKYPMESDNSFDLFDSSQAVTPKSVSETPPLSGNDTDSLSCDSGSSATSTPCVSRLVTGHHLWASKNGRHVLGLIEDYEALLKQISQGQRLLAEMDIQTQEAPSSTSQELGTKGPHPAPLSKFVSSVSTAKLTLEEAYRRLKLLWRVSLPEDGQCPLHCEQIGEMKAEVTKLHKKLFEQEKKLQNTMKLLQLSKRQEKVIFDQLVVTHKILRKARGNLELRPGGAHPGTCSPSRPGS
UniProt Q86WR0: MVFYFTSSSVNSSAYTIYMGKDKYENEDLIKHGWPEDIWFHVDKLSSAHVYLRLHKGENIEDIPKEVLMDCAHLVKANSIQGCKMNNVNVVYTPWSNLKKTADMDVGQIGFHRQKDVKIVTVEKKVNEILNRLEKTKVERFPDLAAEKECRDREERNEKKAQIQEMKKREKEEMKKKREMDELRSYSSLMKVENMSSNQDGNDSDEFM

Compound in the first assay: ClCC(=O)N[C@@H]1CCCc2ccccc12
The experiment in a line: log2 mean competition ratio of IA-DTB cysteine labelling (DMSO/compound) (log2 ratio); higher = stronger cysteine engagement by compound. The following applies: 50 µM; treatment time: 4 h; cell line lysate: HEK293T. The protocol: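 IA-DTB competitive cysteine chemoproteomics in HEK293T RIPA lysate. Lysates were treated with compound 29 or 30 at 50 or 200 µM for 4 h, then IA-DTB (500 µM, 1 h), trypsin-digested, NeutrAvidin-enriched and analysed by diaPASEF. Competition ratio = intensity DMSO / intensity compound (n=4 treated, n=64 DMSO); binding: mean log2 CR ≥ 1 and p ≤ 0.05 plus QC filters. Target is the cysteine site.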
As for CDC42BPA C678 (UniProt Q5VT25), the “log2 mean competition ratio” value is -0.506.
Same read-out and setting: the figure for CDK6 C15 (UniProt Q00534) is -0.3; for CCDC85B C116 (UniProt Q15834) it is 0.0893.
On to CDS1 C10 (UniProt Q92903), for which the “log2 mean competition ratio” value turned out to be 0.0758.
Still for that read-out and setting: to CEP295 C874 (UniProt Q9C0D2) belongs 0.0692; to CDKN2AIP C24 (UniProt Q9NXV6), 0.0792.
On to CEP350 C2956 (UniProt Q5VT06), for which the “log2 mean competition ratio” value was -0.103.
In the case of CCDC28B C114 (UniProt Q9BUN5), the “log2 mean competition ratio” value is 0.259.
In the case of CEP192 C1562 (UniProt Q8TEP8), the “log2 mean competition ratio” value turned out to be 0.114.
Regarding CEP57 C252 (UniProt Q86XR8), the “log2 mean competition ratio” value is -0.097.
Still for that read-out and setting: the figure for CERT1 C65 is -0.203; for CEP162 C1235 (UniProt Q5TB80) it is 0.138; for CDK2 C177 (UniProt P24941) it is 0.242.
Same read-out and setting: the figure for CDC42BPB C1174 (UniProt Q9Y5S2) is -0.204.
The same measure, in the same setting: to CDK5RAP2 C1267 (UniProt Q96SN8) belongs -0.2.
Turning to CDC37 C64, the “log2 mean competition ratio” value was -0.352.
Turning to CCT3 C366, the “log2 mean competition ratio” value was -0.317.
Consider CCNH C57 (UniProt P51946), for which the “log2 mean competition ratio” value is 0.327.
On the same count and under the same terms, the figure for CDK14 C100 is -0.0583.
Take CCDC25 C83 (UniProt Q86WR0): the “log2 mean competition ratio” value was found to be 0.0174.

The same assay, now with this note: 200 µM; treatment time: 4 h; cell line lysate: HEK293T.
With CDC42BPA C678 (UniProt Q5VT25), the “log2 mean competition ratio” value turned out to be 0.512.
Turning to CDK6 C15 (UniProt Q00534), the “log2 mean competition ratio” value is -0.0205.
The same measure, in the same setting: to CCDC85B C116 (UniProt Q15834) belongs -0.326; to CDS1 C10 (UniProt Q92903), 0.0344; to CEP295 C874 (UniProt Q9C0D2), 0.113.
Still for that read-out and setting: the figure for CDKN2AIP C24 (UniProt Q9NXV6) is 0.0711.
The same measure, in the same setting: to CEP350 C2956 (UniProt Q5VT06) belongs 0.151.
For CCDC28B C114 (UniProt Q9BUN5), the “log2 mean competition ratio” value amounted to 0.243.
On the same count and under the same terms, to CEP192 C1562 (UniProt Q8TEP8) belongs -0.0018; to CEP57 C252 (UniProt Q86XR8), -0.166; to CERT1 C65, -0.0288.
CEP162 C1235 (UniProt Q5TB80): the “log2 mean competition ratio” value is -0.254.
On the same count and under the same terms, to CDK2 C177 (UniProt P24941) belongs -0.137; to CDC42BPB C1174 (UniProt Q9Y5S2), -0.074.
Still for that read-out and setting: the figure for CDK5RAP2 C1267 (UniProt Q96SN8) is 0.0339.
Same read-out and setting: the figure for CDC37 C64 is -0.0219.
As for CCT3 C366, the “log2 mean competition ratio” value is -0.00844.
As to CCNH C57 (UniProt P51946), the “log2 mean competition ratio” value came out at 0.0436.
The same measure, in the same setting: the figure for CDK14 C100 is 0.158; for CCDC25 C83 (UniProt Q86WR0) it is -0.197.
